The subject of the data set is bile duct injury. Put plainly: Dextran sodium sulfate induced bile duct injury, liver histology. It counts as in vivo, mice.

On to dextran sodium sulfate [DSS], for which the “bile duct injury, liver histology” value is, setting by setting: (PPARα−/− mice and WT controls, 5% DSS in drinking water for 7 days) “did not induce bile duct injury”; (cftr−/− mice treated with DSS) “periductular mononuclear cell infiltrates, some neutrophils, and bile duct proliferation”.
